In article PMC4773067 (PLoS ONE, 2016):
Results are given in words; binding and its absence hold for the method and conditions named. Binding seen in cells or lysates may run through a third protein. Some binding calls cover weakened binding; strength is not graded here.

Chains of the proteins cited; added tags and fusions are not shown. Residues count along the entry.
UniProt P47872, residues 23-440: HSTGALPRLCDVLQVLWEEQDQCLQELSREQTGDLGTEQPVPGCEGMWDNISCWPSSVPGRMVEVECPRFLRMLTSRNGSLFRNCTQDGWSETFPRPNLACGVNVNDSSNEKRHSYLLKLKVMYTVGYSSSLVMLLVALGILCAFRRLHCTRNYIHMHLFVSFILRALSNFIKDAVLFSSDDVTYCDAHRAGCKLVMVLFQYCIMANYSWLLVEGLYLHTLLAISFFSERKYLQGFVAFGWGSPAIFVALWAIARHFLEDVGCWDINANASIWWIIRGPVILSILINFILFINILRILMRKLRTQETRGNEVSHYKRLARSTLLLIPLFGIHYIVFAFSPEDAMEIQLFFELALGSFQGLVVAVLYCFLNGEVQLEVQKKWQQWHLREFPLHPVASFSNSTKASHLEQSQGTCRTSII

Each binder was assayed against human secretin receptor (human) (UniProt P47872) (assay: FRET or BRET; competitive binding at one concentration: 10,000 CHO-K1 cells with SNAPtag-hSR labelled with Lumi4-Tb, 500 nM labelled hSCT (h[Gly28, Alexa-Cys29]SCT) as acceptor, 10 μM unlabelled peptide, 4–8°C, 1 h, 384-well plates; only the binder purified).
HSDGTFTSELSRLREGARLQRLLQGLVGC (Alexa Fluor 488 C5 maleimide on Cys29) [h[Gly^28, Alexa-Cys^29]SCT] was tested, and the binding was “binds”.
With HPDGTFTSELSRLREGARLQRLLQGLV [h[Pro^2]SCT] the binding was “no binding (tested: 10 μM)”.
With HSFGTFTSELSRLREGARLQRLLQGLV (pCO2H-Phe at 3) [h[pCO2H-Phe^3]SCT] the binding was “no binding (tested: 10 μM)”.
For HSDPTFTSELSRLREGARLQRLLQGLV [h[Pro^4]SCT], the binding was “no binding (tested: 10 μM)”.
In the case of HSDYTFTSELSRLREGARLQRLLQGLV [h[Tyr^4]SCT], the binding is reported as “no binding (tested: 10 μM)”.
With HVDGRFTSEFSRARGSAAIRKIINSALA [Xenopus SCT] the binding was “no binding (tested: 10 μM)”.
In the case of HSDGLFTSEYSKMRGNAQVQKFIQNLM [Chicken SCT], the binding is reported as “no binding (tested: 10 μM)”.
HVDGLFTSELSKLRGSAVARSFTNAVL [Coelacanths SCT] was tested, and the binding was “no binding (tested: 10 μM)”.
For HSDGTFTSELSRL [Nt-SCT], the binding was “no binding (tested: 10 μM)”.
REGARLQRLLQGLV [Ct-SCT] was tested, and the binding was “no binding (tested: 10 μM)”.
For ASDGTFTSELSRLREGARLQRLLQGLV [h[Ala^1]SCT], the binding was “no binding (tested: 10 μM)”.
LSDGTFTSELSRLREGARLQRLLQGLV [h[Leu^1]SCT] was tested, and the binding was “no binding (tested: 10 μM)”.
HSDFTFTSELSRLREGARLQRLLQGLV (p-Cl,D-Phe at 4) [h[(p-Cl,D-Phe^4]SCT] was tested, and the binding was “no binding (tested: 10 μM)”.
FTSELSRLREGARLQRLLQGLV [hSCT_((6–27))] was tested, and the binding was “no binding (tested: 10 μM)”.
